According to paper PMC12169211:
The exact form of at least one protein or probe is not confirmed. A weaker result is weaker than the reference pair of the same experiment. The direction of at least one scale is not stated here.

Tested on: thrombin (biotinylated, immobilized on streptavidin microparticles)
Test: microparticle flow cytometry, trigger displacement
Settings: Thrombin-microparticles incubated with 0.5-200 nM FAM-aptamer, washed with DPBS, binding buffer, pH and temperature not stated, protein details: biotin, label: 5' FAM on 15-mer strand, folded or branched DNA; for binding signal (% aptamer dissociated): DNA trigger of 29-mer-Sticky-TH (S5)

Row | Sequence | binding result (DNA triggers of 15-mer (S3) and 29-mer (S4), 0.5:1 to 10:1 to aptamer, 500 nM HBA) | binding signal (% aptamer dissociated) (0.5:1, 500 nM THBA) | binding signal (% aptamer dissociated) (5:1, 500 nM THBA)
1 | GGTTGGTGTGGTTGGTTTTTGACCCTGCGTACC / AGTCCGTGGTAGGGCAGGTTGGGGTGACTTTTTTGGTACGCAGGTC | binds more weakly |  | 
2 | GGTTGGTGTGGTTGGTTTTTGACCCTGCGTACC / AGTCCGTGGTAGGGCAGGTTGGGGTGACTTTTTTGGTACGCAGGTCCGTTA |  | 50 | 80
